According to PMC9083066:
Negatives hold for the conditions tested. Protein sequences can lack the tags named with them. Construct, isoform or probe ends are uncertain for at least one entry.

Tested on: T1, FabT (Enterococcus faecalis)
T1 sequence (looked up): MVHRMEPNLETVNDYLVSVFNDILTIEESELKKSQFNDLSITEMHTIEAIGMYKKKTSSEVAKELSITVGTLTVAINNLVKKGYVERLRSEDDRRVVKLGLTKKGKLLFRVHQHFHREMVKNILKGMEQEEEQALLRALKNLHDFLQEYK
Experiment: EMSA
Details: recombinant protein, residues 1-150, protein details: His tag (pET28b NdeI/EcoRI, N-terminal), label: none (SYBR Green I stain), probe letters rebuilt from the primers and the genome

Sequence: GCCTAATGAATTCAAAAGTTACTGATGAAAACTTTAAATTTTCTGTCAGTAACTTTTTTTGTTGAAATTATTTCTGTCAGTAGTTTGGGAAGGCAAATTTTACTGACAGAAACTAATATTTTTTATAAAAATTGAGCAATGATGACGTTTTCTAAAAATTATTACTTGCAAATCATTCTAAAAAATAATATAATTTGATACAGAAAACCATTTGCAATATAAAAACAAATTGAGTTCATCTTGCGAGAAAGAAAAAATAGAATAATAAATCAGGGGGTAAGTTGATGATGTTTTTTTGCATCAGTTTATCCCCTATCTAAATGTAATAATAGAATTTCATAAGGGGGTTTTATTGATTTCAATTTCTTTTTTTTTCGTAATGTCTAAAGTCGGACTCACATCTAAATAATGAAGAGGATGACAGATGAAA (double strand) [L. lactis fabT promoter]
- binding result (no ligand, no detectable binding): no binding

Sequence: GTACGAATTCTGCAGTAATACATGAAAATAGGGGGCTGGGACATTTAATTGCTAAATGACCCAGTCCCTAAAAAAACAAGTAAATAAGCCGTAAAAATCCTTTTTTACTTGAATGAAGTGTACTTATCTTAGAACTAAAGGACGTATAAAATCAATGTCGACGGATCCTGAC (double strand) [E. faecalis fabK promoter]
- binding result (no ligand): no binding

Sequence: GTCAGAATTCTGCAGCATATAAAATCTCCTTTAATAAAAAATTTTTGTTGATAGAATAGGCTTTTCTTCATCAAAATGTAAAAGTTACATTTATTGAGTTGACGAATAAAATTTCAACTGGTATTATCTGTGTGAGAATGATAACAAAATCTTCTCAATTTTCTAATCTTGAAAAAAACAGACATTTTTCCTGATGTCTGAATTATTAACCAAAATACTTTGAAAGTCAAACTATTTTTCTTATTTTTTGAGAAAAAGTGCTGGAAACCGCATGAAATAATAGTTTGATAATCAAAATAAACTCGGAGGTACAGTATGTCGACGGATCCTGAC (double strand) [E. faecalis fabI/fabO promoter]
- binding result (no ligand): binds

Sequence: GTCAGAATTCTGCAGTAATTAATCGTCCTACATTTTAATAAGGGAGTGGAGTAGAAGCACCAAAGCTTCTGGTTCACTCTCTTCTCGTATTATCCAGTCAAGTTGTAGCAATAGCTTAGTGGGAATTTAAGAATTATATAACAAAAATCACTGGCACTTCTCAATCAGGGGAGTGCCAGTGATGCTTTTTAGTTGCACTTCTTTCCTTTTTCTGTGAAAATAGTTTGGGTATCAAAGTAATTGATCCTTTTTTTAAAAGCCTCGTCCCTTGAAAATGCGCCTTTTTTGAAATATTTGAAGAATATTTCATTAAAAATATAGAAAATTCTCTTGCATTCTTTGCTTATTTACGATATAGTTTGAACATCAAATGTTTTGATAATCAAAGTATATGGATGTCGACGGATCCTGAC (double strand) [E. faecalis fabT promoter]
- binding result (no ligand): binds
- binding result (oleoyl-AcpA (P3), weak enhancement only at 0.25 and 0.5 uM, lost at higher concentration): binds
- binding result (oleoyl-AcpB (P2), binding enhanced): binds
- binding result (palmitoyl-AcpB (P2), enhanced, less than with oleoyl-AcpB): binds
